These are yes or no findings as the source states them, for the method shown. For some of these results: Binding seen in cells or lysates may run through a third protein. Some results given as binding are weak or reduced against the parent protein; the word gives no strength. Blank lines part the entries; values can stand above or below the substance they belong to.
Assays:
[1] = target: T1, membrane CD146 on cells (U87, U373, HUVEC) (human) (UniProt P43121); test: co-immunoprecipitation with anti-CD146 antibody from HUVEC, western blot
T1 sequence (looked up): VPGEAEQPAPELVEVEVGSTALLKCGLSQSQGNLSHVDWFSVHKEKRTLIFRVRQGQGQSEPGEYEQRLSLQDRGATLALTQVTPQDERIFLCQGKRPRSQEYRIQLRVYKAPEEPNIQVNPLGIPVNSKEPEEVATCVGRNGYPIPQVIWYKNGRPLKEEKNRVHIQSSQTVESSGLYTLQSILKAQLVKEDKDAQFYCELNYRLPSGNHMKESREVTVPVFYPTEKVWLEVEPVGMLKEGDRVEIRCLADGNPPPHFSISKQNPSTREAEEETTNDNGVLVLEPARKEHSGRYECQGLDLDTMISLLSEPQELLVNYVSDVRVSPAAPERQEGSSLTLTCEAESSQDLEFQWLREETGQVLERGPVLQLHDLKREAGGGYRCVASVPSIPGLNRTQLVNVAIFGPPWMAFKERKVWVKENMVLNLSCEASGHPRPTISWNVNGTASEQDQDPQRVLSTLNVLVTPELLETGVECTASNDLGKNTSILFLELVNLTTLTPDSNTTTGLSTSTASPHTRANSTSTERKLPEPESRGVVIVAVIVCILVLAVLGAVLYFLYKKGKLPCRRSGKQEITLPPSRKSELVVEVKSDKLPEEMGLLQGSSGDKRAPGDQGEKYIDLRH

Sequences of proteins named here, by UniProt entry; tags and fusion partners are left off. A change or cut given only in a name is not applied to a line headed by its entry.
UniProt P06756: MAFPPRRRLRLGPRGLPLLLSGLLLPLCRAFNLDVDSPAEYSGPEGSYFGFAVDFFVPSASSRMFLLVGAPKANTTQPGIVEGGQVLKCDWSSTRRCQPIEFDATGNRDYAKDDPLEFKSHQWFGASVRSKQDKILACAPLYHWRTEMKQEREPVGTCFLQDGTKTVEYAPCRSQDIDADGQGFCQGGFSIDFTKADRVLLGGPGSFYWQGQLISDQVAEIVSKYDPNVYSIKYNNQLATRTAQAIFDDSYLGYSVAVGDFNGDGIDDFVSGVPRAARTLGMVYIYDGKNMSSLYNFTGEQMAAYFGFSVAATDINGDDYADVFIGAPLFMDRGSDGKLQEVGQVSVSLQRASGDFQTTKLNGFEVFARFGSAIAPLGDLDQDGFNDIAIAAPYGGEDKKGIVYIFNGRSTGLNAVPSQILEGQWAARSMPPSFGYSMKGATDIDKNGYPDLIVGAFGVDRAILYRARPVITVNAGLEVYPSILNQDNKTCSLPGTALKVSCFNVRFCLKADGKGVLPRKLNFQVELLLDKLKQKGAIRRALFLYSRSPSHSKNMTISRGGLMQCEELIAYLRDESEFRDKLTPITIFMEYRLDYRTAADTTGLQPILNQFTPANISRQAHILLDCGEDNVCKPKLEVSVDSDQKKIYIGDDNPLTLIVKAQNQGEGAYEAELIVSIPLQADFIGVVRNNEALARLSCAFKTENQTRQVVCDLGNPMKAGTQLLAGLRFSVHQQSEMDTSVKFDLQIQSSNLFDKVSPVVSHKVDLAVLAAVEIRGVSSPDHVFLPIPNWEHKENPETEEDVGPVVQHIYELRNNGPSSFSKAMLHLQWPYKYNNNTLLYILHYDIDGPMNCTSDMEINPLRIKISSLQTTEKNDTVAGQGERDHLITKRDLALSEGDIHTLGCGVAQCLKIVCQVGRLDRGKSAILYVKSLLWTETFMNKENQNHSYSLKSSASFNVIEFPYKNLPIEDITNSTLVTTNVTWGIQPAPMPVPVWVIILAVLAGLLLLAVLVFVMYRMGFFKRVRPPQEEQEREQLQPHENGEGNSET
UniProt P05106: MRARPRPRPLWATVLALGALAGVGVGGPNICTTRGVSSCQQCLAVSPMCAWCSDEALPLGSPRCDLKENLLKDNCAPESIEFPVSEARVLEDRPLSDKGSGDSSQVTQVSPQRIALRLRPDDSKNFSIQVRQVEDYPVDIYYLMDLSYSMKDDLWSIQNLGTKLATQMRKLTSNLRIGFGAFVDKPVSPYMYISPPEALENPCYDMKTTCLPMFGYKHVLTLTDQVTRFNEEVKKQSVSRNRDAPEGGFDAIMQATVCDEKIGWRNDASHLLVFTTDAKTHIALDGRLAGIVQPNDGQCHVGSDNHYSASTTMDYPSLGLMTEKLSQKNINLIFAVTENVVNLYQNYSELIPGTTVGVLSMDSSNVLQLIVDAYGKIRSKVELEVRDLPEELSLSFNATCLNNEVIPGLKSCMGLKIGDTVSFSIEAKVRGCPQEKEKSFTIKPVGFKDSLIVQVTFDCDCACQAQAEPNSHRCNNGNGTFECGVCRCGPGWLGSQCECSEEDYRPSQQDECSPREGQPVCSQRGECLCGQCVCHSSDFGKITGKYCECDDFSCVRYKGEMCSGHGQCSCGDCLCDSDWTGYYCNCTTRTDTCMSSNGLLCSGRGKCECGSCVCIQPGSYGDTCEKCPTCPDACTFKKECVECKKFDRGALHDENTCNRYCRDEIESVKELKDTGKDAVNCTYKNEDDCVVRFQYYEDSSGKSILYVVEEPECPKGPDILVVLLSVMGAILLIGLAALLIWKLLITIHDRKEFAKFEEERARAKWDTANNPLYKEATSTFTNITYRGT

[2] = target: T2, integrin αvβ3 on cells (U87, U373, HUVEC; CHO cells transfected with αv and β3 plasmids) (human) (UniProt P06756+P05106); test: sCD146-FITC binding to HUVEC with or without β3 siRNA, flow cytometry
[3] = target: T2, integrin αvβ3 on cells (U87, U373, HUVEC; CHO cells transfected with αv and β3 plasmids) (human); test: sCD146-FITC binding to U87 and U373 cells after siRNA knock-down
[4] = target: T2, integrin αvβ3 on cells (U87, U373, HUVEC; CHO cells transfected with αv and β3 plasmids) (human); test: co-immunoprecipitation from CHO cells with anti-αvβ3 antibody
[5] = target: T2, integrin αvβ3 on cells (U87, U373, HUVEC; CHO cells transfected with αv and β3 plasmids) (human); test: flow cytometry and immunofluorescence on CHO cells transfected with αvβ3
[6] = target: T2, integrin αvβ3 on cells (U87, U373, HUVEC; CHO cells transfected with αv and β3 plasmids) (human); test: co-immunoprecipitation with anti-CD146 antibody from HUVEC, western blot
[7] = target: T2, integrin αvβ3 on cells (U87, U373, HUVEC; CHO cells transfected with αv and β3 plasmids) (human); test: co-immunoprecipitation with anti-CD146 S-Endo1 from U87 cells (reproduced in U373), western blot

binding [1]: binds
Substance: integrin αvβ3 on cells (U87, U373, HUVEC; CHO cells transfected with αv and β3 plasmids) (from UniProt P06756 31-1048; P05106 27-788) (receptor)

binding [2]: binds
binding [3]: binds
binding [4]: binds
binding [5]: binds
Substance: soluble CD146 (sCD146), recombinant human sCD146 (from UniProt P43121 24-559) (ligand)

binding [6]: binds
binding [7]: binds
Substance: membrane CD146 on cells (U87, U373, HUVEC) (from UniProt P43121 24-646) (receptor)

— patent publication US20260132217A1 (UNIVERSITE D AIX MARSEILLE, published 2026)
